Drawing on publication PMC3694847, this text covers binding for two substances.

By UniProt entry, the sequences of proteins in these tests, tags left out. Where a name states a change or a piece, a line headed by the entry shows the natural chain unless it says otherwise.
UniProt Q6P7W0: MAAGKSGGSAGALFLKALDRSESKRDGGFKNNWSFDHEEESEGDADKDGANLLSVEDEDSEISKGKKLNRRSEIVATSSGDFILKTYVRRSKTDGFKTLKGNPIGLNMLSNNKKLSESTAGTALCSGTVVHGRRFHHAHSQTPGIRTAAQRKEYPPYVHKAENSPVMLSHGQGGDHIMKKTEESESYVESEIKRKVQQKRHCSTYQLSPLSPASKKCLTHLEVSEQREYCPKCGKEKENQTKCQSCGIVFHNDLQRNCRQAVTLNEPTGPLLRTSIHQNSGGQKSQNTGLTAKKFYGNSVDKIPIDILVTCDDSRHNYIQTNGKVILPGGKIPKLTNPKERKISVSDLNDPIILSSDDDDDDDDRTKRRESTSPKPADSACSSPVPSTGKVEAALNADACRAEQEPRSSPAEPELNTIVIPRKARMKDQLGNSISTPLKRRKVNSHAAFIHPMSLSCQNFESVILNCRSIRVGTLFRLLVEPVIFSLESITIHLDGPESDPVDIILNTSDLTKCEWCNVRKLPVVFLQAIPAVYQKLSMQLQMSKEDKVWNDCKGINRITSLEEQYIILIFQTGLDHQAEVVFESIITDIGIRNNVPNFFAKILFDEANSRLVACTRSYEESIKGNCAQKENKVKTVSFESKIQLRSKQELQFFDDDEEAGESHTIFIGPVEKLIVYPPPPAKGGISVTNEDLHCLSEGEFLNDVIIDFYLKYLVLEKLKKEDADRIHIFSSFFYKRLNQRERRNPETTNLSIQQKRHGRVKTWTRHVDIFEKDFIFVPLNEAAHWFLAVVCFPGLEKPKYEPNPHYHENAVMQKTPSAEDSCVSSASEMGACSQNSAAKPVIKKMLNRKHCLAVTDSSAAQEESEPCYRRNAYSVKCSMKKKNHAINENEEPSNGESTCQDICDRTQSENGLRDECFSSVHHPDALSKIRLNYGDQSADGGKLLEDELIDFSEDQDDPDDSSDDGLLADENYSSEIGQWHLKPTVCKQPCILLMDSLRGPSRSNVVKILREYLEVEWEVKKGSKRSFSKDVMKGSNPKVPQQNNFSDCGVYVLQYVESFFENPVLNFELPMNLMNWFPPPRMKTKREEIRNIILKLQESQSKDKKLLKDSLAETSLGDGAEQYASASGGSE
UniProt Q80TQ2: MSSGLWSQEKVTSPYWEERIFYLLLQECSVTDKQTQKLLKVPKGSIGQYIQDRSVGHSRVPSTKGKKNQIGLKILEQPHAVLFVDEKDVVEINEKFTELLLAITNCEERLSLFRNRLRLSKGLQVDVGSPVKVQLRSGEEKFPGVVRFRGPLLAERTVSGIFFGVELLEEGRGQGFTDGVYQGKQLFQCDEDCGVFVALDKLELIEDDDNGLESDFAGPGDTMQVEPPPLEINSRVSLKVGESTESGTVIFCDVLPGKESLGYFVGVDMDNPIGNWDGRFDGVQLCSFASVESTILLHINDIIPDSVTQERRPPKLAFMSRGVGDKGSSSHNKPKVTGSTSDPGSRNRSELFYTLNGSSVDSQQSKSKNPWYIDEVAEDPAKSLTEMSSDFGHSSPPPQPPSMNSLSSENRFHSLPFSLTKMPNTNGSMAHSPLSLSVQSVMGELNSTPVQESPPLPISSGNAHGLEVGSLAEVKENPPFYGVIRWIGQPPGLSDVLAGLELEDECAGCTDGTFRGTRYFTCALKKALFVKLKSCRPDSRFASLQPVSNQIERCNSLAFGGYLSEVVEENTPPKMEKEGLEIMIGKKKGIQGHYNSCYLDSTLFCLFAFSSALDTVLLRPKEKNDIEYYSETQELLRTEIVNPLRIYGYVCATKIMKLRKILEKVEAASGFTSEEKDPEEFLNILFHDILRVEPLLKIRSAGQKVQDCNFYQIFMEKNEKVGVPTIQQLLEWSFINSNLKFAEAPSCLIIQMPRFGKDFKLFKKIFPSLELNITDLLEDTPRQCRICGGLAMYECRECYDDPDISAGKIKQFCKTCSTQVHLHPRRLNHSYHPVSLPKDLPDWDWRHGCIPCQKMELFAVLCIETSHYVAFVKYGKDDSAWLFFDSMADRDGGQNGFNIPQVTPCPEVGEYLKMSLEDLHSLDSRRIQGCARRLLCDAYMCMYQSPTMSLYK
UniProt Q9Y6K9: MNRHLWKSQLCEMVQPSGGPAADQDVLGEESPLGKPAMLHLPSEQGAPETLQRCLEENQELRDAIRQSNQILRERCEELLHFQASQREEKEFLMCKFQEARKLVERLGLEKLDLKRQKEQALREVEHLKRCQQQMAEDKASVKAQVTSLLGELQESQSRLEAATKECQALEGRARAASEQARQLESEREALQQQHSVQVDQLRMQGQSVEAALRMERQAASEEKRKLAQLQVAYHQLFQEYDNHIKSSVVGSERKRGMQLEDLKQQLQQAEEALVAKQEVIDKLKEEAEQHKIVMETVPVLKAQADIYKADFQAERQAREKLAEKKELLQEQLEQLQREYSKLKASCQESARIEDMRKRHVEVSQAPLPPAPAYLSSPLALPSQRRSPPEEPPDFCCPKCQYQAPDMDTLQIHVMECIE

No constants are given. Whether binding was seen depends on the method and setting. In cells and extracts the contact can be indirect. For part of these data: Binding can be weak; no strength is given.

One assay has as its target GST-SENP6 (UniProt Q6P7W0). Description: pull-down; purified GST fusion (or GST) preloaded on GST resin; incubated 4 h at 4°C with the Ni-NTA eluate (~300 mM imidazole) of extracts of HEK293T cells transfected with tagged NEMO and His-SUMO-3; immunoblot; both purified.
Assay [1] concerns the target GST-CYLD (470–684 aa) (UniProt Q80TQ2). The assay can be described thus: pull-down; purified GST fusion preloaded on GST resin; incubated 4 h at 4°C with extracts of HEK293T cells transfected with HA-NEMO or HA-NEMO-SUMO-3; immunoblot; only the target purified.
Assay [2] shares this target. The assay can be described thus: pull-down; purified GST fusion (or GST) preloaded on GST resin; incubated 4 h at 4°C with the Ni-NTA eluate (~300 mM imidazole) of extracts of HEK293T cells transfected with tagged NEMO and His-SUMO-3; immunoblot; both purified.

As to “Flag-NEMO K277A (co-expressed with His-SUMO-3) (from UniProt Q9Y6K9 1-419)”, in the assay with GST-SENP6, the binding entry is on record as “no binding”.

HA-NEMO (from UniProt Q9Y6K9 1-419): the binding result with GST-CYLD (470–684 aa) [1] and in the assay with GST-CYLD (470–684 aa) [2] was “binds” each time.
